Reference: the supplement of paper PMC10849652
Some of the results follow.

Sequences of proteins named here, by UniProt entry; tags and fusion partners are left off. A change or cut given only in a name is not applied to a line headed by its entry.
UniProt Q9NS00: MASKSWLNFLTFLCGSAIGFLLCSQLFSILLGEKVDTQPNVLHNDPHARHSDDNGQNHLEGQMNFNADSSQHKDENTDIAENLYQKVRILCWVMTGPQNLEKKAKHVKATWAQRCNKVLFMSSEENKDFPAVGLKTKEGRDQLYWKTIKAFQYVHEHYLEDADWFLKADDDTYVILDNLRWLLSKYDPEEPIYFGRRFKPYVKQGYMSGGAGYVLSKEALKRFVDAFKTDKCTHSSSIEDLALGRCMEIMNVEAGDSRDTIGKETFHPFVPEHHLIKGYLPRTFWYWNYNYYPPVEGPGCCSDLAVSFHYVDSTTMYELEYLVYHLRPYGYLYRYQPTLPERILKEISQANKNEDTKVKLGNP
UniProt Q9BRD0: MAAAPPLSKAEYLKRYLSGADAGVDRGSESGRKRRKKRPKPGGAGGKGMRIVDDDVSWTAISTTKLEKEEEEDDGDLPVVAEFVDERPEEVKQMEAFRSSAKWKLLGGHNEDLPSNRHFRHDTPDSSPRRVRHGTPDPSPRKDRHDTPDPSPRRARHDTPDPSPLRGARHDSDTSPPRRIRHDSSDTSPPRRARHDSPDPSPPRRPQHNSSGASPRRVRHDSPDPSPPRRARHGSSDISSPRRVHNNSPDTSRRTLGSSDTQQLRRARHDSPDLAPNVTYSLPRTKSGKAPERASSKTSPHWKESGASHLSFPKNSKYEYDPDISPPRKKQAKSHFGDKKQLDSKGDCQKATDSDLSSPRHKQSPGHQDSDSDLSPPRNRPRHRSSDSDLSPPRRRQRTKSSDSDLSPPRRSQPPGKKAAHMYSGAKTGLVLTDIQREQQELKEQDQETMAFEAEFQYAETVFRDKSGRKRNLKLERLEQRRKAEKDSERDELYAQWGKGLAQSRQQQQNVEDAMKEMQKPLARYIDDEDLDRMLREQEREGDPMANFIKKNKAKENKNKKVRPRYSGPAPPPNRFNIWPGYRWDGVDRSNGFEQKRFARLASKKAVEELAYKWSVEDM
UniProt O43709: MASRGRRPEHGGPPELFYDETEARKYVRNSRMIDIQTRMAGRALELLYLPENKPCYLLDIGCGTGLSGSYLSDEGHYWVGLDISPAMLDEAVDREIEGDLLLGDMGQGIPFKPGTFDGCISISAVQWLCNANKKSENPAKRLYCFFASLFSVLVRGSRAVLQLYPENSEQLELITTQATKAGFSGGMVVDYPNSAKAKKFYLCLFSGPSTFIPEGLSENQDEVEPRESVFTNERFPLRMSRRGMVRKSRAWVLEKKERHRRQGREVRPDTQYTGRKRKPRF
UniProt Q8NDD1: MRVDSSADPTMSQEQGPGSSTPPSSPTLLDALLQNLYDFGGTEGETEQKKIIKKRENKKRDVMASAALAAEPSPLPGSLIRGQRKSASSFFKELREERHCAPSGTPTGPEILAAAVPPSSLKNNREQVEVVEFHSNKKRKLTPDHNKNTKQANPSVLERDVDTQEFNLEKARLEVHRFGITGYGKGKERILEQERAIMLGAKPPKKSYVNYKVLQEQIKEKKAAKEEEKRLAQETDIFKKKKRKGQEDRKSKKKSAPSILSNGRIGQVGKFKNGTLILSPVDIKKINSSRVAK
UniProt Q8N999, whole entry, looked up: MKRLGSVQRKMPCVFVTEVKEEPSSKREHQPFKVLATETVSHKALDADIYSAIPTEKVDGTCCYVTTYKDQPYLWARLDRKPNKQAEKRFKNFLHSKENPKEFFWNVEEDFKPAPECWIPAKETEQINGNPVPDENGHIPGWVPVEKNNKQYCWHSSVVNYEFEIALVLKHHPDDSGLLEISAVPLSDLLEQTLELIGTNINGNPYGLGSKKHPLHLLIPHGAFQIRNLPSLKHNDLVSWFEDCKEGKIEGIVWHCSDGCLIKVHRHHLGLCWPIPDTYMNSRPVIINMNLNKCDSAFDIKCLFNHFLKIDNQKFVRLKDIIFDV
UniProt P27797, whole entry, looked up: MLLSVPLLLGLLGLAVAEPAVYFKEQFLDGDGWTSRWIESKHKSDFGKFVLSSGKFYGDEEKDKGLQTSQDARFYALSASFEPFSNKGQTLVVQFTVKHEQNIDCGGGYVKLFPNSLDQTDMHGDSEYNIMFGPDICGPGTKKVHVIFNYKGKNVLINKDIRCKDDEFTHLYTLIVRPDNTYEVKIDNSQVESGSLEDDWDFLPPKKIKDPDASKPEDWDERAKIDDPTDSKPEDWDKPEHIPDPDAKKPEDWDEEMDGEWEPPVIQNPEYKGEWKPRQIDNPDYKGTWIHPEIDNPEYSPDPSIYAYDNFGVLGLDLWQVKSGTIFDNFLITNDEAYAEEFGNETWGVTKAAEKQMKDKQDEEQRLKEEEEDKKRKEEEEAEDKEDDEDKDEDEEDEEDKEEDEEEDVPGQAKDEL
UniProt Q9Y376: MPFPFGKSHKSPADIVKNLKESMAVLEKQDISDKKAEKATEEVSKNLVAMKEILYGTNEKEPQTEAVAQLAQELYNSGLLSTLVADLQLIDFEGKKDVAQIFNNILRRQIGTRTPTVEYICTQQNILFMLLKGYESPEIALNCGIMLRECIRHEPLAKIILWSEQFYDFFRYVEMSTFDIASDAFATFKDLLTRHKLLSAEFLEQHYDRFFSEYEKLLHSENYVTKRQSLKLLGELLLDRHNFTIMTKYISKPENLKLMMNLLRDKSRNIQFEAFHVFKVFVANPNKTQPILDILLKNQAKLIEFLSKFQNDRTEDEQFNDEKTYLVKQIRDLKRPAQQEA
UniProt O43852: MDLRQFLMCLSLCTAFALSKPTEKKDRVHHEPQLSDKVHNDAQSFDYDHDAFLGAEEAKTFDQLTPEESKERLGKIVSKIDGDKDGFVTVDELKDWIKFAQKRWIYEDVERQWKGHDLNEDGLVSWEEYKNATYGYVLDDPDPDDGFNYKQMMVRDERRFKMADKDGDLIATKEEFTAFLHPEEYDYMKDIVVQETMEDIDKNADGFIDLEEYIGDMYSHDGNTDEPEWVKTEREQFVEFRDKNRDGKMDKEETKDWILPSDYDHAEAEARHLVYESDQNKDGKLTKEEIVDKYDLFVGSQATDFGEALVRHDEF
UniProt A6NDU8: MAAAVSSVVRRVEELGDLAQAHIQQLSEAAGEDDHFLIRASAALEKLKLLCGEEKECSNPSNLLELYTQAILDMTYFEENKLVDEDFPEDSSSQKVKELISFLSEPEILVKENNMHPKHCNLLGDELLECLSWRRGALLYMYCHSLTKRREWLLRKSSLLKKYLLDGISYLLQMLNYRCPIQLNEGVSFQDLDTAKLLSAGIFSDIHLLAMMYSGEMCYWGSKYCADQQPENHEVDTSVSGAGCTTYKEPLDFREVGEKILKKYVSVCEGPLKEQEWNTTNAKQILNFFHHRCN
UniProt Q6UWU4: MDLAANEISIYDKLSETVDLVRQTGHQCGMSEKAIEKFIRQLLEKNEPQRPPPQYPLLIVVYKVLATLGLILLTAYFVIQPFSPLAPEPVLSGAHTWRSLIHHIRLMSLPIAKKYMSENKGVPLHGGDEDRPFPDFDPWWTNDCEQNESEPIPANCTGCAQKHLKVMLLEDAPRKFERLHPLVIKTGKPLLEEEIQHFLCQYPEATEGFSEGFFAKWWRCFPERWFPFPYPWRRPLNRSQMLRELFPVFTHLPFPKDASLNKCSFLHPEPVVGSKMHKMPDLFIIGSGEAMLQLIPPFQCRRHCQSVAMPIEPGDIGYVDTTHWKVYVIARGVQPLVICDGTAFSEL
UniProt Q9Y2V2: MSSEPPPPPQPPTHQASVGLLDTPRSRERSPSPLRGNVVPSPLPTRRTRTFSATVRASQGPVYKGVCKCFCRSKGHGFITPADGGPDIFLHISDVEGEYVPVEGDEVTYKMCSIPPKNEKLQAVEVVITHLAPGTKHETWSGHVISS
UniProt Q9H0W9: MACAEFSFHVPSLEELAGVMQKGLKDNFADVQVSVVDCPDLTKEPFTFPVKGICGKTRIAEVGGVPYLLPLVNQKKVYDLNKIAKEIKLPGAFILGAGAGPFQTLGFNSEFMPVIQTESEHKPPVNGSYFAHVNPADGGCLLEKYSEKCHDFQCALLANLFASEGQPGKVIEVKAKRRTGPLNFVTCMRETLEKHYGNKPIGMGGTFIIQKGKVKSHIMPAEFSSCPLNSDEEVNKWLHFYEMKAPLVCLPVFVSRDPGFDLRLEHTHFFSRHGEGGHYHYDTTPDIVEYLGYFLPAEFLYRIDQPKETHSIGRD
UniProt Q9BSJ5: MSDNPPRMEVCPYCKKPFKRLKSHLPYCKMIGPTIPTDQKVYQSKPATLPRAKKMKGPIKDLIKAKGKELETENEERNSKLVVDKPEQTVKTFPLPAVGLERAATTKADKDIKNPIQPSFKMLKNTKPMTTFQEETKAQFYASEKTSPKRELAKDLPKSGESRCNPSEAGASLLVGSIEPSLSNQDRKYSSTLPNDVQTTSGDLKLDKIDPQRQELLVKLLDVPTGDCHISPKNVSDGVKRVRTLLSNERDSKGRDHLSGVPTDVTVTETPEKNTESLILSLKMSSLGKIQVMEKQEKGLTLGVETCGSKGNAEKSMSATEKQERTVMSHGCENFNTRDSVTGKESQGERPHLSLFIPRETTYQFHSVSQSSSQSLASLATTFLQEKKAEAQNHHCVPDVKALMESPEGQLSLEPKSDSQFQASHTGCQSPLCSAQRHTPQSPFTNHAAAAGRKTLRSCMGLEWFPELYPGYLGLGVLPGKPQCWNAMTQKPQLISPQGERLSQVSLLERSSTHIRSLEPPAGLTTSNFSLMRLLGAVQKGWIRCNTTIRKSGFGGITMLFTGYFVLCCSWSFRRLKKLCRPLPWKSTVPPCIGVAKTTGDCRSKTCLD
UniProt Q9H7E9: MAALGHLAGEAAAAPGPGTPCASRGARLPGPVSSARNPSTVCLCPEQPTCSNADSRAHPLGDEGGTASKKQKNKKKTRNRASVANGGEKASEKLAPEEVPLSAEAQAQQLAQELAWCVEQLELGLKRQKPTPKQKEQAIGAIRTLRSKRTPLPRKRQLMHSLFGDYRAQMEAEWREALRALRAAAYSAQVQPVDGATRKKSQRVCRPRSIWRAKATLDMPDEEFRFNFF
UniProt Q8N1Q1: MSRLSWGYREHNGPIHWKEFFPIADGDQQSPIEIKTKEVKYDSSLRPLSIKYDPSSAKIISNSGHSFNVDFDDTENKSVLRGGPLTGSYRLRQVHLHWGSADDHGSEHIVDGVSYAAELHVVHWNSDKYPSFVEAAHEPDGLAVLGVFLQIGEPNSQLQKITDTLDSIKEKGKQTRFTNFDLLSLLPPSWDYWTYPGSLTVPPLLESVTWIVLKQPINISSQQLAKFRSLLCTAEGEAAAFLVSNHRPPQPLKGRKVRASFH
UniProt Q9HB71, whole entry, looked up: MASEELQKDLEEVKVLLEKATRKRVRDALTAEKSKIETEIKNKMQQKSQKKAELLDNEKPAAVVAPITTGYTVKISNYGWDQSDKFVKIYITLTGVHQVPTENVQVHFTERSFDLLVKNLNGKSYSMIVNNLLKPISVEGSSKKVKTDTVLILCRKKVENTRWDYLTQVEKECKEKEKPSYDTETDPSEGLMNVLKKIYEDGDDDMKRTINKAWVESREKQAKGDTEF
UniProt Q8WUR7: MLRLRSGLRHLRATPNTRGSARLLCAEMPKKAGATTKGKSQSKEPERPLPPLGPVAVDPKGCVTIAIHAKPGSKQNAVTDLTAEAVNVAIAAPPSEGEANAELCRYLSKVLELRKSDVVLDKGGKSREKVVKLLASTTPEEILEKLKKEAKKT
UniProt P35613: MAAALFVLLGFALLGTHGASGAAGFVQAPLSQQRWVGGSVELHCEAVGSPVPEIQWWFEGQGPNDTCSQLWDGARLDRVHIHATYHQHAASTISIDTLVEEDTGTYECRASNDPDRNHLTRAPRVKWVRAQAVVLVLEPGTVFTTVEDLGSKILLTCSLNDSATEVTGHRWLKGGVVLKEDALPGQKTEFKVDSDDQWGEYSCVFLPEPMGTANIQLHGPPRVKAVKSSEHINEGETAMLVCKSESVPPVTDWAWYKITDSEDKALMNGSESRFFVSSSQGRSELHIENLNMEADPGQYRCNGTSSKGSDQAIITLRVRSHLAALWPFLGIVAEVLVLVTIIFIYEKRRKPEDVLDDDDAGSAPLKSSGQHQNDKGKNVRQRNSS
UniProt O95873: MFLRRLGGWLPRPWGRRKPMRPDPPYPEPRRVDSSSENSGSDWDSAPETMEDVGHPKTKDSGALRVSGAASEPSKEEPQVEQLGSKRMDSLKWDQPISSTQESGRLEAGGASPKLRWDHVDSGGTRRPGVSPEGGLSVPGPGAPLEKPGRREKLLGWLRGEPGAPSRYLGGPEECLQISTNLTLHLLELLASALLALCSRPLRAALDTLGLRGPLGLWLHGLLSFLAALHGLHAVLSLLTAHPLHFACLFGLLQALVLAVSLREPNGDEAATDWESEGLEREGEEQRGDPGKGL
UniProt Q9H425: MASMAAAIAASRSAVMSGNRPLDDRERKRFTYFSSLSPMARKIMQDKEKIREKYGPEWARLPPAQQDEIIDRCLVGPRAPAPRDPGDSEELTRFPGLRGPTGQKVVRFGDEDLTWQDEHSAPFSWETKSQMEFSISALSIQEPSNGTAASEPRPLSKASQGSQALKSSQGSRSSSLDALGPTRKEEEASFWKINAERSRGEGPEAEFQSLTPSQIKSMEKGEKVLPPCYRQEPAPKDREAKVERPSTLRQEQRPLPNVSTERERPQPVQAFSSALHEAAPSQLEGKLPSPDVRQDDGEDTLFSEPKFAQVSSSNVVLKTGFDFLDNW

Each target was assayed with CN1CCN(CCOc2cc(OC3CCOCC3)c3c(Nc4c(Cl)ccc5c4OCO5)ncnc3c2)CC1 [saracatinib] (assay: log2 fold change, soluble protein after heating vs DMSO (PISA); higher = thermal stabilisation; K562 cells, 10 uM, 30 min; active = over 0.2 and 3.5 SD of the protein, either way, in both replicates (recomputed)).
Summary of the method: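 Aliquots of K562 cells (2×10^6 cells/mL) treated with 10 μM compound for 30 min were heated for 3 min over 48°C-58°C. After pooling and extraction in PBS with 0.5% NP-40 at 4°C, soluble protein from a 21,000xg, 90 min spin was quantified by TMTpro 16plex LC-MS/MS with channel sums equalised. Thermal stability is expressed against control samples, from duplicates, as a log2 fold change.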
C1GALT1 (UniProt Q9NS00) was tested, and the log2 fold change was inactive: -0.026.
In the case of BUD13 (UniProt Q9BRD0), the log2 fold change is reported as inactive: -0.025.
In the case of BUD23 isoform 3 (UniProt O43709), the log2 fold change is reported as inactive: -0.037.
C1orf131 isoform 5 (UniProt Q8NDD1) was tested, and the log2 fold change was inactive: -0.053.
With BTF3 (UniProt P20290) the log2 fold change was inactive: 0.085.
For C12orf29 (UniProt Q8N999), the log2 fold change was inactive: -0.014.
In the case of C11orf98 (UniProt E9PRG8), the log2 fold change is reported as inactive: -0.018.
For CALR (UniProt P27797), the log2 fold change was inactive: -0.046.
BUB1 (UniProt O43683) was tested, and the log2 fold change was inactive: -0.076.
For CAB39 (UniProt Q9Y376), the log2 fold change was inactive: 0.028.
For C2orf49 (UniProt Q9BVC5), the log2 fold change was inactive: -0.172.
For CALU isoform 3 (UniProt O43852), the log2 fold change was inactive: 0.064.
With C9orf40 (UniProt Q8IXQ3) the log2 fold change was inactive: -0.068.
With C5orf51 (UniProt A6NDU8) the log2 fold change was inactive: -0.189.
In the case of CAPZA2 (UniProt P47755), the log2 fold change is reported as inactive: 0.026.
CALM2 (UniProt P0DP24) was tested, and the log2 fold change was inactive: 0.013.
In the case of C6orf89 isoform 2 (UniProt Q6UWU4), the log2 fold change is reported as inactive: 0.028.
In the case of CARHSP1 (UniProt Q9Y2V2), the log2 fold change is reported as inactive: 0.019.
For C5orf22 (UniProt Q49AR2), the log2 fold change was inactive: 0.001.
With BTK isoform 2 (UniProt Q06187) the log2 fold change was inactive: -0.175.
For C1orf122 (UniProt Q6ZSJ8), the log2 fold change was inactive: -0.153.
With C11orf54 (UniProt Q9H0W9) the log2 fold change was inactive: 0.039.
With C1orf109 (UniProt Q9NX04) the log2 fold change was inactive: 0.02.
In the case of C3orf38 (UniProt Q5JPI3), the log2 fold change is reported as inactive: 0.115.
For C17orf80 (UniProt Q9BSJ5), the log2 fold change was inactive: 0.118.
In the case of C8orf33 isoform 2 (UniProt Q9H7E9), the log2 fold change is reported as inactive: -0.059.
For C9orf85 isoform 1 (UniProt Q96MD7), the log2 fold change was inactive: 0.019.
In the case of C2CD5 isoform 4 (UniProt Q86YS7), the log2 fold change is reported as inactive: -0.028.
In the case of C3 (UniProt P01024), the log2 fold change is reported as inactive: 0.281.
In the case of C2CD2L (UniProt O14523), the log2 fold change is reported as inactive: 0.027.
CA13 (UniProt Q8N1Q1) was tested, and the log2 fold change was inactive: -0.004.
In the case of C19orf25 (UniProt Q9UFG5), the log2 fold change is reported as inactive: -0.048.
With CACYBP (UniProt Q9HB71) the log2 fold change was inactive: -0.029.
With C2CD2 (UniProt Q9Y426) the log2 fold change was inactive: 0.016.
C15orf40 (UniProt Q8WUR7) was tested, and the log2 fold change was inactive: -0.018.
In the case of BSG (UniProt P35613), the log2 fold change is reported as inactive: -0.002.
In the case of BTF3L4 (UniProt Q96K17), the log2 fold change is reported as inactive: -0.001.
In the case of C6orf47 (UniProt O95873), the log2 fold change is reported as inactive: 0.039.
With C1orf198 (UniProt Q9H425) the log2 fold change was inactive: 0.047.
